Measurements published in the supplement of paper PMC10849652.
The list shows a part of the results.

Protein sequences, listed by entry. Tags and fused reporters are not part of them. Lines headed by an entry give the natural chain unless they say otherwise; changes in a name come on top.
UniProt P20645: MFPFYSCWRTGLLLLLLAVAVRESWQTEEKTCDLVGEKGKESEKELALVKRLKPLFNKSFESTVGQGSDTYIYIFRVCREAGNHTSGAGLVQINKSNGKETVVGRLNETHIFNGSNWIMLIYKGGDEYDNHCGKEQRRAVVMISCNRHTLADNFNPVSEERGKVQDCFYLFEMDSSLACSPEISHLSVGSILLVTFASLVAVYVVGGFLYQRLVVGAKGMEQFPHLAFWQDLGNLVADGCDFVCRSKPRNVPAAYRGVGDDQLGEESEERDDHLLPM
UniProt P62312: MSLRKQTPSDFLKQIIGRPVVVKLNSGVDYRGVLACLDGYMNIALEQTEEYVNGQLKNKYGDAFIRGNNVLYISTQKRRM
UniProt O60476: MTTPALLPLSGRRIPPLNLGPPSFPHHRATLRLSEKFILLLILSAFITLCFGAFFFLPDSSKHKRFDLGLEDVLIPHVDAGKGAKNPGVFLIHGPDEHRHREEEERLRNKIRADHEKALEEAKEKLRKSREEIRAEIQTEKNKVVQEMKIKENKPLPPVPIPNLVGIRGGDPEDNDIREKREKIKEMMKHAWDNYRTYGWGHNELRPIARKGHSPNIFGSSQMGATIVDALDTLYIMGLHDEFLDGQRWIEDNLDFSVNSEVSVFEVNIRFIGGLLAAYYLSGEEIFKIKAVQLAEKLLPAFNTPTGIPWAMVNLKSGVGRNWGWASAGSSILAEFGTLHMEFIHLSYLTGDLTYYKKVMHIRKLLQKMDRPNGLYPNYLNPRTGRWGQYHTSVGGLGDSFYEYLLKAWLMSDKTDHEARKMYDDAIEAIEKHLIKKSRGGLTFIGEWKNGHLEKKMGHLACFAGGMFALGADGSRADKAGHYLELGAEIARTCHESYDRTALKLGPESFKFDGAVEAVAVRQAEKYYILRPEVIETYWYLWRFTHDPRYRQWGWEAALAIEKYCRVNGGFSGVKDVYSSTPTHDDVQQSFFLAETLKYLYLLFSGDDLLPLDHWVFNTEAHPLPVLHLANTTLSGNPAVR
UniProt P46734: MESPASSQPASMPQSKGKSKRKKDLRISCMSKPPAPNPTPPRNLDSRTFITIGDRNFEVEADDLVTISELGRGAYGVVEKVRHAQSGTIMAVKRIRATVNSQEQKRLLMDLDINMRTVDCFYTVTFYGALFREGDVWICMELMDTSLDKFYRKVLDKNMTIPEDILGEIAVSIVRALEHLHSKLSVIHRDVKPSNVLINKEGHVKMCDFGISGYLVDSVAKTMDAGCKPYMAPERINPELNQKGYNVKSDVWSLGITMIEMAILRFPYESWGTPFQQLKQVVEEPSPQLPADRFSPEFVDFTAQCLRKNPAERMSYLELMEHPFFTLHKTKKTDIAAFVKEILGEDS
UniProt Q14766: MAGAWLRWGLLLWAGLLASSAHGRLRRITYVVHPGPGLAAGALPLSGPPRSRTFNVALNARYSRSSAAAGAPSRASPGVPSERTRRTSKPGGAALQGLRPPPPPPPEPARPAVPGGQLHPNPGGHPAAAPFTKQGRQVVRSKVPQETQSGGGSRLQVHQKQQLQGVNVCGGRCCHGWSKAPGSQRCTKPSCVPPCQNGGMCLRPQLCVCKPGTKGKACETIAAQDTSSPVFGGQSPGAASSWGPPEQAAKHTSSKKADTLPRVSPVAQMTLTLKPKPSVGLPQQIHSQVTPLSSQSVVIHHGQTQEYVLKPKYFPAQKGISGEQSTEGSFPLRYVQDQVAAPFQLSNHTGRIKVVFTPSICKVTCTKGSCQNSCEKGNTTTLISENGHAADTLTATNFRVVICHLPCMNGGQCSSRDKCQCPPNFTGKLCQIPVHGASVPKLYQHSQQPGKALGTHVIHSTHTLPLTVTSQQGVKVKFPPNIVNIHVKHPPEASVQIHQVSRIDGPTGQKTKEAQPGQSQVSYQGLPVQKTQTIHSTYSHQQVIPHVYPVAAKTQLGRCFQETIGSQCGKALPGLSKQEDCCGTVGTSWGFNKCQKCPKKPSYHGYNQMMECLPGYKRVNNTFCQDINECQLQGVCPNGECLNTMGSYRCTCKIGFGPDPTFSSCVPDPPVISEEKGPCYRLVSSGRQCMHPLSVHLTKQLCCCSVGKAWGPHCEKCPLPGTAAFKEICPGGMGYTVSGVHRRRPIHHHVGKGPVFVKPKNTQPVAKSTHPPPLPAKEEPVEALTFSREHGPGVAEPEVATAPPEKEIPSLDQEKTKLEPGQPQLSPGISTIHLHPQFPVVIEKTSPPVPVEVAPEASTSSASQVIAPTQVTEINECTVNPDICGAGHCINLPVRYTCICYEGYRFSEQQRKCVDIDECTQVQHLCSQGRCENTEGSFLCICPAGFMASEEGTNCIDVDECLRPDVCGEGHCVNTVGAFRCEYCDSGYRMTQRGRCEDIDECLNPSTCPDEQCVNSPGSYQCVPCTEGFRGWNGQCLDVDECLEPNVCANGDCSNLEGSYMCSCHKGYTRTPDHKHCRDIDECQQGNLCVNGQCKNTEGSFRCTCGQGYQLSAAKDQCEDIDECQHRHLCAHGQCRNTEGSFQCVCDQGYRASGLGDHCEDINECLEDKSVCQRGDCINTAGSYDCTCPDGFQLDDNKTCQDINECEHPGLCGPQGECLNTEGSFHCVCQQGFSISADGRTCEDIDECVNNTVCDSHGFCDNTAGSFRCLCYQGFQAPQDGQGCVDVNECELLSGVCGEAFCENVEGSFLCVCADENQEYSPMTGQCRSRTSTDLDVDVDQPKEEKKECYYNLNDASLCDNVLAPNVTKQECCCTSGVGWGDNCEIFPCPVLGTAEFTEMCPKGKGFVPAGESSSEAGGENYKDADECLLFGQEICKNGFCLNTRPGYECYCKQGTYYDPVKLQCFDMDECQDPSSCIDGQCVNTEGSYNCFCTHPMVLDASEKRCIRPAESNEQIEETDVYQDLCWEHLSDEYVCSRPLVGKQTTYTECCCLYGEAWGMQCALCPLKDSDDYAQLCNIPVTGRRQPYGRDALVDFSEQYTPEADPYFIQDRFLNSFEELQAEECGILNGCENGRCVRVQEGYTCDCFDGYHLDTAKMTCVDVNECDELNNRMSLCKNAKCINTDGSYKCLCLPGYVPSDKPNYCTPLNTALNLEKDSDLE
UniProt P43362: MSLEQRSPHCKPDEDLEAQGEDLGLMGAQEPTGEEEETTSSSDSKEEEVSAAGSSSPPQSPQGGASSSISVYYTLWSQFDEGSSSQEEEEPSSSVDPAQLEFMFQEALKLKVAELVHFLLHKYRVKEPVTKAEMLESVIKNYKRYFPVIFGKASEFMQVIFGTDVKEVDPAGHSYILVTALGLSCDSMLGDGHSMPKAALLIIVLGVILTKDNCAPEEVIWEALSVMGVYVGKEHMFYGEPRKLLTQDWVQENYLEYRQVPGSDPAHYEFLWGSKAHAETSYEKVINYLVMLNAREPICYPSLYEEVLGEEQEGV
UniProt Q3KQU3: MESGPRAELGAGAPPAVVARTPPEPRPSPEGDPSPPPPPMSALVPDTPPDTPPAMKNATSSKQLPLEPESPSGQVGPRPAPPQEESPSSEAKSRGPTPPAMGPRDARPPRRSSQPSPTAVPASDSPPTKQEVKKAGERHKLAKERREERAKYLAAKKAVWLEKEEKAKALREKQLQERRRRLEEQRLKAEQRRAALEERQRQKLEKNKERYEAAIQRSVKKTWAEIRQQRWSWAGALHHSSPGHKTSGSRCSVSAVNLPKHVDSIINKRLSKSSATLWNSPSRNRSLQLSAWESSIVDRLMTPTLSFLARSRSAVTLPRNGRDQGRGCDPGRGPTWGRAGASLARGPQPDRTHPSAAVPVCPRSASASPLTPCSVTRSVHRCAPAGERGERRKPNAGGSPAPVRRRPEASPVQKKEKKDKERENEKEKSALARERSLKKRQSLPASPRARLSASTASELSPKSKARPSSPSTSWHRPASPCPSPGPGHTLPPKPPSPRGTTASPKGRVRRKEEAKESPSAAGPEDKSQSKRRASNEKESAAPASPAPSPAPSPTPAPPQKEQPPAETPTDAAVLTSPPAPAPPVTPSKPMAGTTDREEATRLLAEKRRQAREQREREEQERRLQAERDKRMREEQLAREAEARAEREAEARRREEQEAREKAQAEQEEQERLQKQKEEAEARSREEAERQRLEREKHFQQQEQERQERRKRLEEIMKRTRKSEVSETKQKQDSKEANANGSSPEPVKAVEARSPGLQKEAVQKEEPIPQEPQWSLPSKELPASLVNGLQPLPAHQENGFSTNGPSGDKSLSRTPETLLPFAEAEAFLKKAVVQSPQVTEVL
UniProt Q13257, whole entry, looked up: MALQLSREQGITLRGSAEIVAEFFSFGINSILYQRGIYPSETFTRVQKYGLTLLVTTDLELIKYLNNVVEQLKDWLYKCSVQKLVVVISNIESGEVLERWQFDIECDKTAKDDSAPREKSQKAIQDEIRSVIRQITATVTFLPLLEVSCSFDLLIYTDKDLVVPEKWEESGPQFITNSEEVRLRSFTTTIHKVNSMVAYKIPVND
UniProt O15479: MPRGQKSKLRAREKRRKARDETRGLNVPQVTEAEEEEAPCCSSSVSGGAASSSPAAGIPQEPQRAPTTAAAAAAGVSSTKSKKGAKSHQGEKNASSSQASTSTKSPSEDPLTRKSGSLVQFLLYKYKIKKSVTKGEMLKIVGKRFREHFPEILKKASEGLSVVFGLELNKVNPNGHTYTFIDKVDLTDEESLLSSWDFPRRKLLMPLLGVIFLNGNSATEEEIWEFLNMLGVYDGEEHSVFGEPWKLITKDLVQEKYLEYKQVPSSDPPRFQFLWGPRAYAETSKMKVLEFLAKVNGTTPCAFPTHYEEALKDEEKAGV
UniProt Q9BQ69: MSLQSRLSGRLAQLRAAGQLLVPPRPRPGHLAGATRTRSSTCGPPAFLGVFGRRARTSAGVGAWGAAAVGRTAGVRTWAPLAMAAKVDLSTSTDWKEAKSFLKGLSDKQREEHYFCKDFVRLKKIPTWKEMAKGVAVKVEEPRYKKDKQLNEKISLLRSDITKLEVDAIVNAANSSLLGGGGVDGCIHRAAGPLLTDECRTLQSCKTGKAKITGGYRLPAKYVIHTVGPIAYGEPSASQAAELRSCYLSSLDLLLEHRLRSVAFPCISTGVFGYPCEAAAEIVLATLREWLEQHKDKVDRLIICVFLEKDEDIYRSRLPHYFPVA
UniProt Q5VWZ2: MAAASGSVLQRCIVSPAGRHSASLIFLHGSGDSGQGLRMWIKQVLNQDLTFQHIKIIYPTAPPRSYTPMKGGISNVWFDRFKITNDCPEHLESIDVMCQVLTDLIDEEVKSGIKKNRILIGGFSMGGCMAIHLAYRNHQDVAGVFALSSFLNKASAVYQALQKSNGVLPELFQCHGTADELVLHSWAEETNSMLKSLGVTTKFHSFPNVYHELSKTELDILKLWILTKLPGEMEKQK
UniProt P12980: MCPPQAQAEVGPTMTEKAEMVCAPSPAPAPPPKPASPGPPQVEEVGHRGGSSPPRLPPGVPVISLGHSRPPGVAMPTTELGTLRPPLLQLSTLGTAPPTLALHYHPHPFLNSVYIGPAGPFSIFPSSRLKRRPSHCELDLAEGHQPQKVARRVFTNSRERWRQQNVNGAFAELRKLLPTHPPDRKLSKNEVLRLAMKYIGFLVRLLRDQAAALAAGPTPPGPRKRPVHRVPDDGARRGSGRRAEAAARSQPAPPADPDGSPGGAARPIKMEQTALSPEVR
UniProt Q9HD34: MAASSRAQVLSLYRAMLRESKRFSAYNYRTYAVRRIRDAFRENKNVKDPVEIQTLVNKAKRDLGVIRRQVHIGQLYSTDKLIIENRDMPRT
UniProt Q8IW41: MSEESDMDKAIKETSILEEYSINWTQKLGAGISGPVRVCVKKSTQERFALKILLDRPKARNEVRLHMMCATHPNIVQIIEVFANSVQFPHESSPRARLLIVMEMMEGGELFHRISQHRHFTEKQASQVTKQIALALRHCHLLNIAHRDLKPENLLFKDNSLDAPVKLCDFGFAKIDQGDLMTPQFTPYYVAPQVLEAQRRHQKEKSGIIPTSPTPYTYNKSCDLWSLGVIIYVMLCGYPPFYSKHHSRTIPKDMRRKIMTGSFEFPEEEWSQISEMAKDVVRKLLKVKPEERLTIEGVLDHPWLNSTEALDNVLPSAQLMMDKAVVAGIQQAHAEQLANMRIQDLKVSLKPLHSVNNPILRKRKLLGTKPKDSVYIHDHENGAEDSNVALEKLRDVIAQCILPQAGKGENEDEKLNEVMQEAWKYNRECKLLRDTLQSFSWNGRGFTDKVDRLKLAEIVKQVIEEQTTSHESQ
UniProt Q9NQ29: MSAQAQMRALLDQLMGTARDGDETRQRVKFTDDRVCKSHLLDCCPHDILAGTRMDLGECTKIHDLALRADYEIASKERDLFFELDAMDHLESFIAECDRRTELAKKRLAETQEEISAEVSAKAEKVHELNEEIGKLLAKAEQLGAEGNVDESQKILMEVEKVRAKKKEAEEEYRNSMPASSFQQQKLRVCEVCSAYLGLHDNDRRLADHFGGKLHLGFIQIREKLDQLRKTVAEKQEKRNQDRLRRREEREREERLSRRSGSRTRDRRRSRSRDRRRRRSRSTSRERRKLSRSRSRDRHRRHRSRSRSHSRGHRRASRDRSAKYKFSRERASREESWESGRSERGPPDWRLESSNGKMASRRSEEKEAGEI

Compound: C/C(=N\NC(=O)C1=CC(=CC=C1)S(=O)(=O)N2CCOCC2)/C3=C(C=CC(=C3)Cl)O
Assay: log2 fold change, soluble protein after heating vs DMSO (PISA); higher = thermal stabilisation; K562 cells, 10 uM, 30 min; active = over 0.2 and 3.5 SD of the protein, either way, in both replicates (recomputed)
Procedure, shortened: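 Quantification of soluble protein used TMTpro 16plex LC-MS/MS, with channel sums equalised. Samples were the supernatant after 21,000xg for 90 min of pooled aliquots from K562 cells (2×10^6 cells/mL) treated with 10 μM compound for 30 min, heated for 3 min over 48°C-58°C, and extracted in PBS with 0.5% NP-40 at 4°C. Values, from duplicates, describe thermal stability against control samples on a log2 fold-change scale.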

Which log2 fold change does the source give for MAP4 (UniProt E7EVA0) here?
Its log2 fold change is inactive: -0.093.

Which log2 fold change does the source give for MAPK12 (UniProt P53778) here?
The log2 fold change was inactive: -0.033.

Which log2 fold change does the source give for M6PR (UniProt P20645) here?
The log2 fold change was inactive: 0.011.

Which log2 fold change does the source give for LRSAM1 (UniProt Q6UWE0) here?
The log2 fold change was inactive: 0.034.

How did the log2 fold change turn out when LSM6 (UniProt P62312) was run?
The log2 fold change was inactive: 0.03.

MAN1A2 (UniProt O60476) was tested. Which log2 fold change did it give?
The log2 fold change was inactive: 0.037.

MAP2K3 isoform 3 (UniProt P46734) was tested. Which log2 fold change did it give?
The log2 fold change was inactive: 0.05.

Which log2 fold change does the source give for MARCHF6 (UniProt O60337) here?
The log2 fold change was inactive: 0.004.

With LTBP1 isoform 4 (UniProt Q14766) as the target, how does the log2 fold change read?
Its log2 fold change is inactive: -0.18.

For LRRFIP1 (UniProt Q32MZ4), which log2 fold change is on record?
The log2 fold change was inactive: -0.045.

Which log2 fold change does the source give for MAGEA9 (UniProt P43362) here?
The log2 fold change was inactive: 0.032.

With MAK16 (UniProt Q9BXY0) as the target, how does the log2 fold change read?
The log2 fold change was inactive: -0.1.

For LYZ (UniProt P61626), which log2 fold change is on record?
The log2 fold change was inactive: 0.024.

How did the log2 fold change turn out when MAN2C1 isoform 4 (UniProt Q9NTJ4) was run?
The log2 fold change was inactive: -0.138.

How did the log2 fold change turn out when MAP7D1 (UniProt Q3KQU3) was run?
The log2 fold change was inactive: -0.221.

Which log2 fold change does the source give for MAD2L1 (UniProt Q13257) here?
The log2 fold change was inactive: 0.056.

How did the log2 fold change turn out when MARCKSL1 (UniProt P49006) was run?
The log2 fold change was inactive: 0.072.

For LYPLA2 (UniProt O95372), which log2 fold change is on record?
The log2 fold change was inactive: 0.021.

Which log2 fold change does the source give for MADD isoform 2 (UniProt Q8WXG6) here?
The log2 fold change was inactive: -0.008.

MAPRE3 (UniProt Q9UPY8) was tested. Which log2 fold change did it give?
Its log2 fold change is active: 0.252.

For LSM14A isoform 2 (UniProt Q8ND56), which log2 fold change is on record?
Its log2 fold change is inactive: -0.006.

Which log2 fold change does the source give for MAGEB2 (UniProt O15479) here?
The log2 fold change was inactive: -0.25.

Which log2 fold change does the source give for MACROD1 (UniProt Q9BQ69) here?
Its log2 fold change is inactive: 0.264.

With LYPLAL1 (UniProt Q5VWZ2) as the target, how does the log2 fold change read?
The log2 fold change was inactive: 0.051.

With MAP1B (UniProt P46821) as the target, how does the log2 fold change read?
The log2 fold change was inactive: -0.051.

Which log2 fold change does the source give for LYL1 (UniProt P12980) here?
The log2 fold change was inactive: -0.058.

MACF1 (UniProt Q9UPN3) was tested. Which log2 fold change did it give?
The log2 fold change was inactive: 0.055.

For MAN2A1 (UniProt Q16706), which log2 fold change is on record?
The log2 fold change was inactive: -0.001.

For MARCHF5 (UniProt Q9NX47), which log2 fold change is on record?
Its log2 fold change is inactive: -0.007.

Which log2 fold change does the source give for LYRM4 (UniProt Q9HD34) here?
The log2 fold change was inactive: 0.025.

Which log2 fold change does the source give for LYRM7 (UniProt Q5U5X0) here?
Its log2 fold change is inactive: 0.018.

How did the log2 fold change turn out when MAPKAPK5 (UniProt Q8IW41) was run?
Its log2 fold change is inactive: -0.249.

Which log2 fold change does the source give for LUC7L (UniProt Q9NQ29) here?
Its log2 fold change is inactive: 0.043.
